# PubChem BioAssay AID1347421 (Sanford-Burnham Center for Chemical Genomics, 2020)
# Sequences of proteins named here, by UniProt entry; tags and fusion partners are left off. A change or cut given only in a name is not applied to a line headed by its entry.
# UniProt O00391: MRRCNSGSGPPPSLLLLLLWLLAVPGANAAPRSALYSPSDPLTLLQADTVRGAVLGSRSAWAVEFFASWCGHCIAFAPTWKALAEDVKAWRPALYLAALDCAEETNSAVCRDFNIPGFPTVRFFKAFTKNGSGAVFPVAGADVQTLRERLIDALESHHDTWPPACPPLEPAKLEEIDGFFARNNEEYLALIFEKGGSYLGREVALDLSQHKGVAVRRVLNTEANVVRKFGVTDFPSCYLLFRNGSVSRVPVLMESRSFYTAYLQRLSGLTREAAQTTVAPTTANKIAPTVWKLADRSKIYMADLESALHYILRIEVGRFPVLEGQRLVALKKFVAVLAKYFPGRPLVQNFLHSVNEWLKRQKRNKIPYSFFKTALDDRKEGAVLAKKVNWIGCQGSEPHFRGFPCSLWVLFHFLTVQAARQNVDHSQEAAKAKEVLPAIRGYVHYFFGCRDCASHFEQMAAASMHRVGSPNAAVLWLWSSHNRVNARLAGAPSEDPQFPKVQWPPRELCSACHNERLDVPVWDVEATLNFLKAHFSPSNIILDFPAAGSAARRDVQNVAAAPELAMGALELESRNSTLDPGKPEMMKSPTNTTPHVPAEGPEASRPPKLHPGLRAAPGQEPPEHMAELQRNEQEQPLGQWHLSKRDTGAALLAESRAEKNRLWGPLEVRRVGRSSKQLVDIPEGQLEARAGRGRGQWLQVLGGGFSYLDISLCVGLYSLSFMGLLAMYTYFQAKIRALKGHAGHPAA
# Over roughly 1,500 compounds, “activity” has its median near 2; the lowest 2% begin near -18. This is one part of the list. Calls of active or inactive are those of the source.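 Rule for the calls: active = inhibition of at least 40% at 10 µM; inconclusive = no clear call, values can overlap the other calls; inactive = the rest.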
# Biological target: Sulfhydryl oxidase 1 (Homo sapiens) (UniProt O00391)
# Experiment: human QSOX1 sulfhydryl oxidase inhibition – biochemical, ROS-Glo luminescence, single concentration, confirmation (AID 1347421);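 note: 0% = DMSO wells with enzyme and 100% = wells lacking QSOX1 enzyme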
# Details: recombinant hQSOX1, RNase A substrate, ROS-Glo H2O2 luminescence; at 10 µM
row,Structure (SMILES),activity
1,CN1CCN(CC(=O)NCC23C[C+]4CC(CC(C4)C2)C3)CC1,9.9%
2,NC(=O)c1ccc(S(=O)(=O)NCc2cccs2)cc1,6.3%
3,COc1cccc(CN2CCCC3(CCN(Cc4cnc(C)n4C)C3)C2)c1OC (stereo not given),inactive: -2.7%
4,COc1cccc(CC2CN(Cc3ccc(CO)o3)CCO2)c1 (stereo not given),17.2%
5,c1ccc(CNc2ccc(NCc3ccccc3)nn2)cc1,inactive: -8.7%
6,COc1cc(CN(C)Cc2ccn[nH]2)ccc1OCC(O)CN(C)C(C)C (stereo not given),7.9%
7,CS(=O)(=O)Nc1ccc(C(=O)N2CCCCCC2)cc1,3.9%
8,COc1ccc(CNCC2CCOCC2)c(OCC(O)CN2CCN(C)CC2)c1 (stereo not given),7.1%
9,COc1cc(S(=O)(=O)N2CCN(C)CC2)c(OC)cc1C,1.6%
10,O=C(NCCCOc1cccnc1)C1CCC(=O)N(CCc2cccc(F)c2)C1 (stereo not given),2.2%
11,O=C(CCC1CCCN(Cc2cccnc2)C1)N1CCN(Cc2ccccc2)CC1 (stereo not given),8.5%
12,CC(C)CS(=O)(=O)c1ncc(CN2C[C@@H](C)O[C@@H](C)C2)n1Cc1ccccc1,inactive: -1.1%
13,CCCOc1ccccc1C(=O)Nc1ccc(NC(C)=O)cc1,0.8%
14,COCCN1C(=O)C(=O)/C(=C(\O)c2ccc(OC)cc2C)C1c1cccnc1 (stereo not given),inactive: -3%
15,Cc1cc(C)cc(NC(=O)N2CCCCCC2)c1,inactive: -6.1%
16,CC(C)CC1c2[nH]c3ccccc3c2CCN1Cc1ccc(CO)o1 (stereo not given),9.2%
17,OC(COc1ccccc1CNCCc1ccccn1)CN1CCSCC1 (stereo not given),5.9%
18,O=C(C(=O)N1CCOC(CCCc2ccccc2)C1)c1ccco1 (stereo not given),inactive: -3.7%
19,COCCS(=O)(=O)c1ncc(CN2CCCCC2CCO)n1Cc1ccccc1 (stereo not given),1.6%
20,COc1cccc(CC2CN(C(=O)c3sccc3Cl)CCO2)c1 (stereo not given),inactive: -1.7%
21,C#CCN(CC=C)Cc1nc(-c2ccc(C)s2)oc1C,inactive: -0.2%
22,O=C(CCc1ccccc1)Nc1ccnn1C1CCN(C(=O)C2CCOC2)CC1 (stereo not given),6.6%

row,Structure (SMILES),activity
1,COCC(=O)Nc1ccccc1C(=O)NC1CCCCC1,1.3%
2,CC(Cc1ccsc1)NC(=O)CCCn1nnnc1CN1CCOCC1 (stereo not given),2.4%
3,CCN1CCN(CC(O)COc2cccc(CNCCn3cccn3)c2)CC1 (stereo not given),4.8%
4,CCS(=O)(=O)c1ncc(CN(C)Cc2ccsc2)n1Cc1ccccc1,10.4%
5,Cc1cc(C(=O)NC2CCCN(C3CCCCCC3)C2)nc(N)n1 (stereo not given),inactive: -0.9%
6,O=C(c1cn(Cc2ccc(F)cc2Cl)nn1)N1CCCCC1CCN1CCOCC1 (stereo not given),2.5%
7,Cc1ccc(OCCN(C)Cc2nc(COc3ccccc3)no2)cc1,inactive: -3.6%
8,CCOC(=O)C1(CCCc2ccccc2)CCN(C(=O)CCn2cnnn2)CC1,0.6%
9,O=S(=O)(CC1CC1)c1ncc(CN2CCCCCCC2)n1CC1CCCO1 (stereo not given),3.5%
10,CCN(CC)C(=O)C1CCCN(Cc2nc(-c3ccc(Cl)cc3)oc2C)C1 (stereo not given),4.3%
11,COc1ccc(CNCCCSC)cc1OCC(O)CN(C)C(C)C (stereo not given),3.5%
12,COCc1ccc(C(=O)NC2CC(=O)N(CC3CCCCC3)C2)o1 (stereo not given),inactive: -0.2%
13,COc1cc(C(=O)NC2CCCCC2)ccc1OC1CCN(C(C)=O)CC1,3.4%
14,Cc1cccc2nc(CNC(=O)CCc3nnc(C4CCCCC4)o3)cn12,3.4%
15,OC(COc1cccc(CNCCc2cnc[nH]2)c1)CN1CCCCCC1 (stereo not given),16.3%
16,CN1CCCCCC1C(=O)NCc1cccnc1N1CCN(c2ccccn2)CC1 (stereo not given),inactive: -5.2%
17,COc1cccc(CN2CCNC(=O)C2CC(=O)NC2CCCCCCC2)c1 (stereo not given),2.4%
18,Fc1ccccc1-c1noc2c1CN(Cc1cccnc1)CC2,inactive: -1.3%
19,Cc1nc(CC(=O)N2CCCC(CCC(=O)N3CCN(c4ccccn4)CC3)C2)cs1 (stereo not given),inactive: -2.5%
20,Cc1ccc(CNc2nnnn2C)s1,1.9%
21,O=C(CC1Nc2ccccc2NC1=O)NC1CCCC1 (stereo not given),5.9%
22,O=C1Nc2ccccc2Oc2ccc(S(=O)(=O)N3CCOCC3)cc21,inactive: -1.3%

# Looked up above.
# In activity, OC(COc1cccc(CNCCc2cnc[nH]2)c1)CN1CCCCCC1 (stereo not given) has the entry 16.3%
# In activity, CCN(CC)C(=O)C1CCCN(Cc2nc(-c3ccc(Cl)cc3)oc2C)C1 (stereo not given) has the entry 4.3%
# In activity, O=S(=O)(CC1CC1)c1ncc(CN2CCCCCCC2)n1CC1CCCO1 (stereo not given) has the entry 3.5%
# In activity, COc1cccc(CN2CCNC(=O)C2CC(=O)NC2CCCCCCC2)c1 (stereo not given) has the entry 2.4%
# In activity, CN1CCCCCC1C(=O)NCc1cccnc1N1CCN(c2ccccn2)CC1 (stereo not given) has the entry inactive: -5.2%
# In activity, COCC(=O)Nc1ccccc1C(=O)NC1CCCCC1 has the entry 1.3%
# In activity, Fc1ccccc1-c1noc2c1CN(Cc1cccnc1)CC2 has the entry inactive: -1.3%

# Further results follow:

row,Structure (SMILES),activity
1,CN1CCC(NC2CC(=O)N(C3CCCCCC3)C2)CC1 (stereo not given),0.2%
2,CCN(Cc1cnn(C)c1)C(=O)c1cc(COc2ccc(F)cc2F)on1,7.7%
3,CC1CN(c2ccccc2)CCN1c1nc2nonc2nc1N1CCOCC1 (stereo not given),5.4%
4,CSc1ccccc1C(=O)N1CCOC(CCN(C)C)C1 (stereo not given),inactive: -1%
5,COc1cccc2c1OCC(CNC1CCCN(c3ncccn3)C1)=C2 (stereo not given),7.2%
6,Cc1nc2ccc(Cl)cn2c1CN1CCOC(Cc2ccccc2)C1 (stereo not given),7.9%
7,O=C(Nc1ccc(N2CCCC2=O)cc1)c1cncc(Br)c1,2.1%
8,C/C(=C\c1ccco1)CNCc1cccnc1N1CCOCC1,inactive: -3.5%
9,CCS(=O)(=O)c1ncc(CN2CCN(c3cnccn3)CC2)n1CCc1ccccc1,6.2%
10,Cc1occc1C(=O)Nc1ccc([N+](=O)[O-])cn1,17.1%
11,c1ccc(CCCc2nn3c(-c4cccnc4)nnc3s2)cc1,3%
12,COc1cc(Cl)c(CN2CC[C@@H](N3CCN(C)CC3)[C@H](O)C2)cc1OC,inactive: -4.5%
13,COc1ccc(CNCCN(C)C)cc1OCC(O)CN(C)C(C)C (stereo not given),5.8%
14,CS(=O)(=O)Nc1ccccc1-c1nc2ccccc2[nH]c1=O,inactive: -9.2%
15,COc1cccc(CN2CCN(Cc3ccc(Cl)cc3)CC2CCO)c1 (stereo not given),2.1%
16,CN1CCC(N(C)C(=O)CCC2CCCN(Cc3c(F)cccc3F)C2)CC1 (stereo not given),5.4%
17,COCCn1c(CN2CCN(C)C(C)C2)cnc1S(=O)(=O)CC(C)(C)C (stereo not given),22%
18,NC(=O)CCC(=O)N1CCOC(Cc2cccc(F)c2)C1 (stereo not given),5.1%
19,COc1ccc(S(=O)(=O)N2CCC(CO)(Cc3ccccc3)CC2)cc1OC,inactive: -1.9%
20,O=C(CCC1CCN(C(=O)CSc2ccccn2)CC1)NCC1CCCO1 (stereo not given),2.6%
21,Clc1cccc(N2CCN(C3CCCN(C4CCSCC4)C3)CC2)c1 (stereo not given),4%
22,Clc1ccc(-c2ccc(CNc3nn[nH]n3)o2)cc1,inactive: -1.2%

row,Structure (SMILES),activity
1,O=C(CCC1CCCN(Cc2ccc3cc(Cl)ccc3n2)C1)N1CCCC1 (stereo not given),4.3%
2,Cc1noc(-c2ccc(NCc3ccccc3-n3cncn3)nc2)n1,15%
3,COc1ccc(CN2CCCC(Nc3ccc(F)c(F)c3)C2)c(O)c1 (stereo not given),inactive: -1%
4,COc1cc(CNCc2ccc(F)cc2)ccc1OCC(O)CN1CCOCC1 (stereo not given),2.4%
5,COc1cccc(CNCCCSC)c1OCC(O)CN1CCOCC1 (stereo not given),2.5%
6,CN(Cc1ccccc1)C1CCCN(C2CCC2)C1 (stereo not given),1%
7,Cc1ccc(S(=O)(=O)N2CCCCCC2)cc1C(=O)NC(C)C,inactive: -15.8%
8,Cc1ccc(CN(C)CC2(O)CCCN(Cc3ccccc3F)C2=O)cc1 (stereo not given),4.8%
9,O=C(CCc1nnc(-c2ccc3c(c2)OCO3)o1)NCC1CC12CCCCC2 (stereo not given),inactive: 0%
10,c1cc(CN2CCc3[nH]nc(-c4ccc5c(c4)OCO5)c3C2)co1,3.8%
11,COc1cc(CNCc2cnc(C)cn2)ccc1OCC(O)CN1CCCC1 (stereo not given),3.7%
12,COc1ccccc1CN1CC(C(=O)N(C)CCC2CCOCC2)CCC1=O (stereo not given),9.3%
13,CC(C)(C)CN1CC(NC(=O)C2CCOCC2)CC1=O (stereo not given),12.4%
14,CC(C)(C)CN1CCCC2(CCN(CCCn3cccn3)C2)C1=O (stereo not given),5.1%
15,COc1ccc(OCC(O)CN2CCC(O)CC2)c(CNCCSC)c1 (stereo not given),8.1%
16,Cc1nc(CNC(=O)CC2C(=O)NCCN2Cc2cccc(F)c2F)cs1 (stereo not given),5.5%
17,Cc1cccc(S(=O)(=O)NCC2CCN(c3cnn(C)c(=O)c3)C2)c1 (stereo not given),5.8%
18,CCS(=O)(=O)c1ncc(CN(C)CC(O)c2ccccc2)n1Cc1ccccc1 (stereo not given),6.9%
19,CCN(Cc1ccncc1)C1CCCN(S(=O)(=O)c2cc(C)c(Cl)cc2C)C1 (stereo not given),2.3%
20,CCOc1ccc(CN2CC[C@@H](N3CCCCCC3)[C@H](O)C2)cc1Cl,6.1%
21,CN1CCN([C@@H]2CCN(Cc3ccc(OC4CCCC4)cc3)C[C@H]2O)CC1,3.5%
22,COc1cccc(-c2ccc(NC(=O)C3CCCN(C(=O)CNC(C)=O)C3)cc2)c1 (stereo not given),10.2%

row,Structure (SMILES),activity
1,COc1ccccc1C(=O)Nc1cccc(-c2cn3ccsc3n2)c1,1.8%
2,Cc1cc(Cl)ccc1NC(=S)NCc1cccnc1,5.1%
3,CN(CC1CCCN(CCc2ccc(F)cc2)C1)C(=O)CCCn1cncn1 (stereo not given),3.3%
4,COc1ccc(N2CCN(C3CCCN(Cc4nc5ccccc5nc4C)C3)CC2)cc1 (stereo not given),7.9%
5,O=C(c1ccc(Oc2ccccc2)cc1)C1CCCN(C(=O)CCn2cncn2)C1 (stereo not given),5.3%
6,CCC1c2cccn2CCN1Cc1cn[nH]c1-c1cc(OC)c(OC)c(OC)c1 (stereo not given),inactive: -2.5%
7,CC(C)NC(=O)c1ccoc1COc1ccccc1,0.9%
8,OC(COc1ccccc1CNCCN1CCCC1)CN1CCSCC1 (stereo not given),7.1%
9,Cc1cnn(Cc2ccc(F)cc2)c1NC(=O)Cn1nnc(C(C)(C)C)n1,1.9%
10,CC(=O)c1ccc(N2CCN(c3nncc(-c4cccc(F)c4)n3)CC2)cc1,39.1%
11,COCC(=O)Nc1ccc(S(=O)(=O)N2CCCC(C)C2)cc1 (stereo not given),7.5%
12,O=C(NCc1ccoc1)c1ccc(C2CCCN2Cc2cc[nH]c(=O)c2)s1 (stereo not given),inactive: -4.3%
13,COc1cccc(CC2CN(Cc3cnc(N(C)C)s3)CCO2)c1 (stereo not given),inactive: -3.2%
14,CCc1ccccc1NC(=O)Nc1ccc(OC)cc1OC,8.2%
15,COc1ccc(OCC(O)CN2CCC(O)CC2)c(CNCC2CCOCC2)c1 (stereo not given),7.5%
16,COc1cccc(NC(=O)CCC2CCN(C(=O)C3CC=CCC3)CC2)c1 (stereo not given),5%
17,COc1ccc(N2C(=O)CC(N3CCOCC3)C2=O)cc1Cl (stereo not given),inactive: -16.6%
18,Cc1oc(-c2ccc(F)cc2)nc1CN(CCO)Cc1cccs1,1.4%
19,Cc1ccc(S(=O)(=O)N2CCN(c3ccccc3)CC2)cc1C(N)=O,1.7%
20,OC1CCN([C@@H]2CCN(CC3CCCCC3)C[C@H]2O)CC1,2.5%
21,CCCCC(=O)Nc1cccc2nc(C)ccc12,inactive: -14.5%
22,O=C(c1ccco1)N1CCc2onc(-c3ccc(C(F)(F)F)cc3)c2C1,4.9%
